We go through one sequence from publication PMC9262599.

Amino acid sequences for entries named in this document (tags omitted).
UniProt Q5I7M6, entry or part of it: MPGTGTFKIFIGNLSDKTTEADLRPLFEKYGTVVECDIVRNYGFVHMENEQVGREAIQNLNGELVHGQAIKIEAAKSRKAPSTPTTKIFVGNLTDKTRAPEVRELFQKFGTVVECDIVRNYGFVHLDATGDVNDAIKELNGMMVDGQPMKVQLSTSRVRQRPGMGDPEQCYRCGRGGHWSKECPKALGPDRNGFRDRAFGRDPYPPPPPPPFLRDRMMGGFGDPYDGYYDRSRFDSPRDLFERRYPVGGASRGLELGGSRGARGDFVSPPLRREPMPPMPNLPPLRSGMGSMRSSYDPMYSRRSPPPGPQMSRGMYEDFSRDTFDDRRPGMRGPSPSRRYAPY

In the data set the target is BmLARK (Bombyx mori) (UniProt Q5I7M6). As to the kind of experiment: EMSA. Particulars: pyridostatin (PDS) 1-3 uM, added before or after binding; 10 mM Tris pH 7.5, 50 mM KCl, 1 mM DTT, room temperature, 20 min; 2 uM probe, 2 ug BmLARK or 1 ug BG4 in 20 ul; 4% PAGE on ice; recombinant protein; protein details: GST (pGEX-6P-1); label: 5' 6-FAM; folded or branched DNA. For orientation: A gel shift assay detects complexes by their altered migration in electrophoresis.

Construct, isoform or probe ends are uncertain for at least one entry. Weaker means in comparison with the reference protein, sequence or condition of that experiment.

In the case of “GTCGGGAAGGGGTTGGGGGGGGGTAGGTT [FAM-BmACBP G4 (folded with K+)]”, the binding result is reported as “binds more weakly”.
